# Laboratory results reported in the supplement of paper PMC8728848.
# The other results are listed elsewhere or left out.
# What was measured:
# Test in all cases: glycan array binding signal (z-score within array); higher = stronger binding
# Details in all cases: glycan notation: IUPAC condensed, linker removed
# [1] = target: Neu5Ac(a2-3)Gal(b1-3)GlcNAc(b1-2)Man(a1-3)[GlcNAc(b1-4)][Neu5Ac(a2-3)Gal(b1-3)GlcNAc(b1-2)Man(a1-6)]Man(b1-4)GlcNAc(b1-4)GlcNAc
# How it was run: (§1)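 Columns mapping to the same glycan were averaged after glycan names were converted to IUPAC-condensed notation. The data come from 3228 arrays in the Consortium for Functional Glycomics database, limited to those with an available protein sequence. Binding is reported as a within-array Z-score averaged across arrays of one protein sequence and across linkers.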
# [2] = target: Neu5Ac(a2-3)Gal(b1-3)GlcNAc(b1-2)Man(a1-3)[Neu5Ac(a2-3)Gal(b1-3)GlcNAc(b1-2)Man(a1-6)]Man(b1-4)GlcNAc(b1-4)GlcNAc
# How it was run: as §1
# [3] = target: Neu5Ac(a2-3)Gal(b1-3)GlcNAc(b1-3)Gal(b1-3)GlcNAc
# How it was run: as §1
# [4] = target: Neu5Ac(a2-3)Gal(b1-3)GlcNAc(b1-3)Gal(b1-4)GlcNAc
# How it was run: as §1
# [5] = target: Neu5Ac(a2-3)Gal(b1-3)GlcNAc(b1-3)GalNAc
# How it was run: as §1
# [6] = target: Neu5Ac(a2-3)Gal(b1-3)GlcNAc(b1-4)Gal(b1-4)Glc
# How it was run: as §1
# [7] = target: Neu5Ac(a2-3)Gal(b1-3)GlcNAc(b1-6)GalNAc
# How it was run: as §1
# [8] = target: Neu5Ac(a2-3)Gal(b1-3)GlcNAc6S
# How it was run: as §1
# [9] = target: Neu5Ac(a2-3)Gal(b1-3)[Fuc(a1-4)]GlcNAc
# How it was run: as §1
# [10] = target: Neu5Ac(a2-3)Gal(b1-3)[Fuc(a1-4)]GlcNAc(b1-3)Gal(b1-3)[Fuc(a1-4)]GlcNAc
# How it was run: as §1
# [11] = target: Neu5Ac(a2-3)Gal(b1-3)[Fuc(a1-4)]GlcNAc(b1-3)Gal(b1-4)[Fuc(a1-3)]GlcNAc
# How it was run: as §1
# [12] = target: Neu5Ac(a2-3)Gal(b1-3)[GlcNAc(b1-6)]GalNAc
# How it was run: as §1
# [13] = target: Neu5Ac(a2-3)Gal(b1-3)[Neu5Ac(a2-6)]GalNAc
# How it was run: as §1
# [14] = target: Neu5Ac(a2-3)Gal(b1-3)[Neu5Ac(a2-6)]GlcNAc(b1-3)[Fuc(a1-3)[Gal(b1-4)]GlcNAc(b1-6)]Gal(b1-4)Glc
# How it was run: as §1
# [15] = target: Neu5Ac(a2-3)Gal(b1-3)]Neu5Ac(a2-3)Gal(b1-4)]GlcNAc
# How it was run: as §1
# Neu5Ac(a2-3)Gal(b1-4)Glc = target: Neu5Ac(a2-3)Gal(b1-4)Glc
# How it was run: as §1
# [16] = target: Neu5Ac(a2-3)Gal(b1-4)GlcNAc
# How it was run: as §1
# [17] = target: Neu5Ac(a2-3)Gal(b1-4)GlcNAc(b1-2)Man
# How it was run: as §1
# [18] = target: Neu5Ac(a2-3)Gal(b1-4)GlcNAc(b1-2)Man(a1-3)[GlcNAc(b1-4)][Neu5Ac(a2-3)Gal(b1-4)GlcNAc(b1-2)Man(a1-6)]Man(b1-4)GlcNAc(b1-4)GlcNAc
# How it was run: as §1
# [19] = target: Neu5Ac(a2-3)Gal(b1-4)GlcNAc(b1-2)Man(a1-3)[Neu5Ac(a2-3)Gal(b1-4)GlcNAc(b1-2)Man(a1-6)]Man(b1-4)GlcNAc(b1-4)GlcNAc
# How it was run: as §1
# [20] = target: Neu5Ac(a2-3)Gal(b1-4)GlcNAc(b1-2)Man(a1-3)[Neu5Ac(a2-3)Gal(b1-4)GlcNAc(b1-2)Man(a1-6)]Man(b1-4)GlcNAc(b1-4)[Fuc(a1-6)]GlcNAc
# How it was run: as §1
# [21] = target: Neu5Ac(a2-3)Gal(b1-4)GlcNAc(b1-2)Man(a1-3)[Neu5Ac(a2-6)Gal(b1-4)GlcNAc(b1-2)Man(a1-6)]Man(b1-4)GlcNAc(b1-4)GlcNAc
# How it was run: as §1
# [22] = target: Neu5Ac(a2-3)Gal(b1-4)GlcNAc(b1-2)[Neu5Ac(a2-3)Gal(b1-4)GlcNAc(b1-4)]Man(a1-3)[GlcNAc(b1-4)][Neu5Ac(a2-3)Gal(b1-4)GlcNAc(b1-2)[Neu5Ac(a2-3)Gal(b1-4)GlcNAc(b1-6)]Man(a1-6)]Man(b1-4)GlcNAc(b1-4)GlcNAc
# How it was run: as §1
# [23] = target: Neu5Ac(a2-3)Gal(b1-4)GlcNAc(b1-2)[Neu5Ac(a2-3)Gal(b1-4)GlcNAc(b1-4)]Man(a1-3)[GlcNAc(b1-4)][Neu5Ac(a2-3)Gal(b1-4)GlcNAc(b1-4)Man(a1-6)]Man(b1-4)GlcNAc(b1-4)GlcNAc
# How it was run: as §1
# [24] = target: Neu5Ac(a2-3)Gal(b1-4)GlcNAc(b1-2)[Neu5Ac(a2-3)Gal(b1-4)GlcNAc(b1-6)]Man(a1-6)[Neu5Ac(a2-3)Gal(b1-4)GlcNAc(b1-2)Man(a1-3)]Man(b1-4)GlcNAc(b1-4)GlcNAc
# How it was run: as §1
# [25] = target: Neu5Ac(a2-3)Gal(b1-4)GlcNAc(b1-2)[Neu5Ac(a2-3)Gal(b1-4)GlcNAc(b1-6)]Man(a1-6)[Neu5Ac(a2-3)Gal(b1-4)GlcNAc(b1-2)Man(a1-3)][GlcNAc(b1-4)]Man(b1-4)GlcNAc(b1-4)GlcNAc
# How it was run: as §1
# [26] = target: Neu5Ac(a2-3)Gal(b1-4)GlcNAc(b1-3)Gal
# How it was run: as §1
# [27] = target: Neu5Ac(a2-3)Gal(b1-4)GlcNAc(b1-3)Gal(b1-3)GlcNAc
# How it was run: as §1
# [28] = target: Neu5Ac(a2-3)Gal(b1-4)GlcNAc(b1-3)Gal(b1-4)GlcNAc
# How it was run: as §1
# [29] = target: Neu5Ac(a2-3)Gal(b1-4)GlcNAc(b1-3)Gal(b1-4)GlcNAc(b1-2)Man(a1-3)[Neu5Ac(a2-3)Gal(b1-4)GlcNAc(b1-3)Gal(b1-4)GlcNAc(b1-2)Man(a1-6)]Man(b1-4)GlcNAc(b1-4)GlcNAc
# How it was run: as §1
# [30] = target: Neu5Ac(a2-3)Gal(b1-4)GlcNAc(b1-3)Gal(b1-4)GlcNAc(b1-3)Gal(b1-4)GlcNAc
# How it was run: as §1
# [31] = target: Neu5Ac(a2-3)Gal(b1-4)GlcNAc(b1-3)Gal(b1-4)GlcNAc(b1-3)Gal(b1-4)GlcNAc(b1-2)Man(a1-3)[Neu5Ac(a2-3)Gal(b1-4)GlcNAc(b1-3)Gal(b1-4)GlcNAc(b1-3)Gal(b1-4)GlcNAc(b1-2)Man(a1-6)]GalNAc
# How it was run: as §1
# [32] = target: Neu5Ac(a2-3)Gal(b1-4)GlcNAc(b1-3)Gal(b1-4)GlcNAc(b1-3)GalNAc
# How it was run: as §1
# [33] = target: Neu5Ac(a2-3)Gal(b1-4)GlcNAc(b1-3)Gal(b1-4)GlcNAc(b1-3)[Neu5Ac(a2-3)Gal(b1-4)GlcNAc(b1-3)Gal(b1-4)GlcNAc(b1-6)]GalNAc
# How it was run: as §1
# [34] = target: Neu5Ac(a2-3)Gal(b1-4)GlcNAc(b1-3)Gal(b1-4)GlcNAc(b1-6)[Gal(b1-3)]GalNAc
# How it was run: as §1
# [35] = target: Neu5Ac(a2-3)Gal(b1-4)GlcNAc(b1-3)Gal(b1-4)[Fuc(a1-3)]GlcNAc
# How it was run: as §1
# [36] = target: Neu5Ac(a2-3)Gal(b1-4)GlcNAc(b1-3)GalNAc
# How it was run: as §1
# [37] = target: Neu5Ac(a2-3)Gal(b1-4)GlcNAc(b1-3)[Neu5Ac(a2-3)Gal(b1-4)GlcNAc(b1-6)]GalNAc
# How it was run: as §1
binder,measurement,setting,value
GS7807Q-bfa-507-19-507 (Bacteroides fragilis) (protein) ASCNKFDDLNTNPDAATKVTAPMLATKLILNITQQGSAKNFVYHSMLSKQIAWSENASDEQYNLFGRTDFDGYTILTNCQKMVDAANEGDKDSYAALAKFMKAYKLFYKSLEVGDIPYSDALKGEEGVQKPKYDTQKEVMRQVLEDLEEAYTLFSSGSDFDGDPIFGGDTENWKKTVVAFELKVLTHLCKKDTDADLKVKERFARLVSSGSLMTSNADNFQLVYSNKAGQLYPFYYTQNKHSDYLMMSSVIIDNLKKFNDYRMFYYASPAKAQTDKGIKDSEWDAYLSIDPSDSYSNISVLYGKGEFCLANLRYTRVPEGEPLMRLSYAEQNFILAEGAVRGWISEDASTYYKKGIEASMNFIADNTPDKEEYTHGRTITQEYIQEYLAQPVIQLSGDKEKDLEMILLQRYLASFLQHPYDAYYDYRRTGYPVLPINPSTNLNTEKNKIPTRWMYPEAEFSYNPDNANEAVQRQYNGSDDVNKLMWILQ,glycan array binding signal (z-score),[1],0.307
same,glycan array binding signal (z-score),[2],0.236
same,glycan array binding signal (z-score),[3],-0.26
same,glycan array binding signal (z-score),[4],0.014
same,glycan array binding signal (z-score),[5],-0.574
same,glycan array binding signal (z-score),[6],-0.746
same,glycan array binding signal (z-score),[7],-0.038
same,glycan array binding signal (z-score),[8],-0.963
same,glycan array binding signal (z-score),[9],0.478
same,glycan array binding signal (z-score),[10],-0.567
same,glycan array binding signal (z-score),[11],-0.38
same,glycan array binding signal (z-score),[12],-1.42
same,glycan array binding signal (z-score),[13],-0.795
same,glycan array binding signal (z-score),[14],-0.05
same,glycan array binding signal (z-score),[15],-0.397
same,glycan array binding signal (z-score),Neu5Ac(a2-3)Gal(b1-4)Glc,-0.57
same,glycan array binding signal (z-score),[16],-0.496
same,glycan array binding signal (z-score),[17],0.435
same,glycan array binding signal (z-score),[18],-0.905
same,glycan array binding signal (z-score),[19],-0.347
same,glycan array binding signal (z-score),[20],-0.209
same,glycan array binding signal (z-score),[21],-0.656
same,glycan array binding signal (z-score),[22],-0.028
same,glycan array binding signal (z-score),[23],-0.908
same,glycan array binding signal (z-score),[24],1.35
same,glycan array binding signal (z-score),[25],-0.035
same,glycan array binding signal (z-score),[26],-0.133
same,glycan array binding signal (z-score),[27],-0.713
same,glycan array binding signal (z-score),[28],-0.947
same,glycan array binding signal (z-score),[29],0.618
same,glycan array binding signal (z-score),[30],-0.273
same,glycan array binding signal (z-score),[31],2.66
same,glycan array binding signal (z-score),[32],-0.333
same,glycan array binding signal (z-score),[33],1.66
same,glycan array binding signal (z-score),[34],-0.541
same,glycan array binding signal (z-score),[35],-0.515
same,glycan array binding signal (z-score),[36],-0.737
same,glycan array binding signal (z-score),[37],0.035

# Two consecutive records out of the list so far:
binder,measurement,setting,value
GS7807Q-bfa-507-19-507 (Bacteroides fragilis) (protein) ASCNKFDDLNTNPDAATKVTAPMLATKLILNITQQGSAKNFVYHSMLSKQIAWSENASDEQYNLFGRTDFDGYTILTNCQKMVDAANEGDKDSYAALAKFMKAYKLFYKSLEVGDIPYSDALKGEEGVQKPKYDTQKEVMRQVLEDLEEAYTLFSSGSDFDGDPIFGGDTENWKKTVVAFELKVLTHLCKKDTDADLKVKERFARLVSSGSLMTSNADNFQLVYSNKAGQLYPFYYTQNKHSDYLMMSSVIIDNLKKFNDYRMFYYASPAKAQTDKGIKDSEWDAYLSIDPSDSYSNISVLYGKGEFCLANLRYTRVPEGEPLMRLSYAEQNFILAEGAVRGWISEDASTYYKKGIEASMNFIADNTPDKEEYTHGRTITQEYIQEYLAQPVIQLSGDKEKDLEMILLQRYLASFLQHPYDAYYDYRRTGYPVLPINPSTNLNTEKNKIPTRWMYPEAEFSYNPDNANEAVQRQYNGSDDVNKLMWILQ,glycan array binding signal (z-score),[27],-0.713
same,glycan array binding signal (z-score),[28],-0.947
